# The list shows a part of the results.
# B1: il2ra_site1_3nfp_sap_13_mot_HHH_b2_04287_000000160_0001_19_35_H_._7abaf38a3307e851c9e6880adce6b300_0001_1_0001_0000100002_0000001_0_0001 (protein)
# chain: SDRDLEFHEEVFRILAEAIRRKVNAEELAEEIEELLERAEEIGADHAKRAAERLLETAERFLRSS
# B2: il2ra_site2_3nfp_sap_12_mot_HHH_b2_03978_000000149_0001_1_20_H_._HHH_b1_05549_af2_0001_0000300017_0000001_0_0001 (protein)
# chain: SSSSSDVEEEVRELLEQAEKTEDPEEVRRLFAKAAHLAFERNDPELFMEVAEVALRLHRSSSSSS
# B3: il2ra_site2_2erj_sap_26_mot_3b06bd03f1c6bceadc68eab912867b79_0001_000000296_0001_36_50_H_._HHH_b2_02291_0001_0000500048_0000001_0_0001 (protein)
# chain: SSSSSSEYREEIEELIEEARRVSEEEAEKLLSEAFELAFENNDVEIASEVIEEMAKLAHASSSSS
# B4: il2ra_site1_1z92_sap_28_mot_HHH_b1_00661_af2_000000033_0001_38_50_H_._HHH_b2_00267_af2_0001_0000300009_0000001_0_0001_af2pred_0001_af2pred_1 (protein)
# chain: PEELAEQAEELLKNGNPEEAEKVLRELAKELGNEEVFERDLEHAERNLGNPEQALLSLIKALSFV
# B5: il2ra_site2_2erj_normal_mot_b021e2f97af61d757b726e3a8bae34a4_0001_af2_000000105_0001_17_31_H_._HHH_b1_04752_0001_0000500018_0000001_0_af2pred_0001_af2pred (protein)
# chain: SSSSSDREELERFVEELVEEFGLDEEDKELLEEAVEDALKEGLDEKFIRIFLRKSAKLLQSSSSS
# B6: il2ra_site2_2erj_sap_29_mot_ems_p1-14H-GABBL-16H-GABBL-15H_0014_0001_0001_0001_000000124_0001_40_55_H_._HHH_b1_00287_af2_0001_0000200003_0000001_0_0001 (protein)
# chain: SSSSSDSEEAARAFAQEAFENNDREALEYFLKFVEKSAEMDGDPRLEEVAELIRELLEELSSSSS
# B7: il2ra_site2_2erj_sap_27_mot_e63b485c515f68499f2ec453e144b8a1_0001_af2_000000187_0001_54_65_H_._38c1efbf0224450141ac84ec5489883f_0001_af2_0001_0000400018_0000001 … (protein)
# chain: SSSSDEEEERIRELAEEAKRIDDLHEVYELLNEMTRIASEANDQELVELVAELFEEIAELFSSSS
# B8: il2ra_site2_2erj_sap_20_mot_HHH_b1_07204_000000037_0001_41_57_H_._41b5e8afe8ae26091a972e0beeba0202_0001_0001_0002000102_0000001_0_0001_af2pred_0001_1_af2pred_sw … (protein)
# chain: SDEENLAAFVRLLAEHLGVPSVEVEVENNRLHVEVNGDDEAAKLVILAAKSAAEAHGVEFTFETE
# B9: il2ra_site1_3nfp_sap_18_mot_HHH_b1_01736_000000293_0001_24_39_H_._HHH_b2_01871_0001_0000300019_0000001_0_0001 (protein)
# chain: QDKALEWFVEDAVKQNSPRALKKFLEDLERMFGDPEEAERFLEELLEAVLGDPEEVERLLKLAKE
# B10: il2ra_site2_3nfp_normal_mot_HHH_b1_02297_000000279_0001_41_58_H_._HHH_b2_04619_af2_0001_0000200005_0000001_0_af2pred_0001_af2pred_1_swapped (protein)
# chain: SSSSSEDEERVRELLEEAEKIEDEHEVFAILSEALEIAFKSKNEELLREIREVALELRRRSSSSS
# Target: il2ra, P01589
# Assay: yeast display titration
row,Binder,apparent Kd
1,B1,inactive: no binding seen
2,B2,inactive: no binding seen
3,B3,inactive: no binding seen
4,B4,inactive: no binding seen
5,B5,inactive: no binding seen
6,B6,inactive: no binding seen
7,B7,inactive: no binding seen
8,B8,inactive: no binding seen
9,B9,inactive: no binding seen
10,B10,inactive: no binding seen

# Exported with tabs: part of the list above.
row	Binder	apparent Kd
4	B4	inactive: no binding seen
5	B5	inactive: no binding seen

# — paper PMC10163288
